Assay results published in patent publication US20220054447A1, “CANNABIS COMPOSITIONS AND METHODS” (priority 2018, published 2022).

Columns and labels:
[1] = Trial 10: collection of cannabis vapor at 210 °C using glass fiber filter pads; settings: for Terpenes in cannabis oil, Client Sample ID N01: RPC Sample ID 293753-01; for Terpenes in cannabis oil, Client Sample ID N03: RPC Sample ID 293753-03
[2] = Volcano Medic, 210 °C, cited from earlier work
[3] = Trial 3: effect of solvents on terpene recoveries from a gas standard; settings: for Terpenes, concentration in sample C02: terpenes in ethanol, RPC 286508-2, RL 0.0001; for Terpenes, concentration in sample C01: terpenes in ethanol-hexane, RPC 286508-1, RL 0.0001; for Terpenes, concentration in sample C03: terpenes in hexane, RPC 286508-3, RL 0.0001
[4] = Cannabis Vapor In Hexane, RL 0.001

Row | Compound | Terpenes, concentration in sample C02 [3] [%] | Terpenes, concentration in sample C01 [3] [%] | Terpenes, concentration in sample C03 [3] [%] | Terpenes in cannabis oil, Client Sample ID N01 [1, 4] [mg/mL] | Terpenes in cannabis oil, Client Sample ID N03 [1, 4] [mg/mL] | further results
1 | CCCCCc1cc(O)c2c(c1)OC(C)(C)[C@@H]1CCC(C)=C[C@@H]21 [THC, tetrahydrocannabinol, reference compound] | – | – | – | – | – | Cannabinoids in oil by HPLC, sample N11 (Cannabis Vapor In Methanol) ([1]; RPC 293753-04, RL 0.001, Trial 10 vapor 210° C., first trap (filter pad extract)): 0.310 mg/mL; Cannabinoids in oil by HPLC, sample N15 (Cannabis Vapor In Methanol) ([1]; RPC 293753-08, RL 0.001, Trial 10, trap after filter pad): <0.001 mg/mL; Cannabinoids in oil by HPLC, Client Sample ID N11 ([1]; RPC Sample ID 293753-04, Cannabis Vapor In Methanol, RL 0.001): 0.310 mg/mL; Cannabinoids in oil by HPLC, Client Sample ID N15 ([1]; RPC Sample ID 293753-08, Cannabis Vapor In Methanol, RL 0.001): <0001 mg/mL; Cannabinoids in oil by HPLC, Client Sample ID P11 ([1]; RPC Sample ID 293753-12, Cannabis Vapor In Methanol, RL 0.001): 0.347 mg/mL; THC recovered from the vapor within the first valve balloon ([2]; loaded dose 10 mg): ~6 mg; THC recovered in first valve balloon, share of loaded dose ([2]; loaded dose 10 mg): 60%; THC in the second balloon [2]: less than 0.5 mg
2 | C=C(C)[C@@H]1CCC2=CCC[C@@H](C)[C@]2(C)C1 [Valencene] | <0.0001 | <0.0001 | <0.0001 | 0.001 | <0.001 | –
3 | C=C/C(C)=C\CC=C(C)C [Cis-ocimene] | <0.0001 | <0.0001 | <0.0001 | <0.001 | <0.001 | –
4 | Terpineol | <0.0001 | <0.0001 | <0.0001 | 0.003 | <0.001 | Terpenes in cannabis oil, sample N01 (Cannabis Vapor In Hexane) ([1]; RPC 293753-01, RL 0.001, Trial 10 vapor 210° C., first trap (filter pad extract)): 0.003 mg/mL; Terpenes in cannabis oil, sample N02 (Cannabis Vapor In Hexane) ([1]; RPC 293753-02, RL 0.001, Trial 10, trap after filter pad): <0.001 mg/mL; Terpenes in cannabis oil, sample N03 (Cannabis Vapor In Hexane) ([1]; RPC 293753-03, RL 0.001, Trial 10, trap after filter pad): <0.001 mg/mL; Terpenes in cannabis oil, Client Sample ID N02 ([1]; RPC Sample ID 293753-02, Cannabis Vapor In Hexane, RL 0.001): <0.001 mg/mL; Terpenes in cannabis oil, Client Sample ID P01 ([1]; RPC Sample ID 293753-09, Cannabis Vapor In Hexane, RL 0.001): 0.002 mg/mL; Terpenes in cannabis oil, Client Sample ID P02 ([1]; RPC Sample ID 293753-10, Cannabis Vapor In Hexane, RL 0.001): <0.001 mg/mL; Terpenes in cannabis oil, Client Sample ID P03 ([1]; RPC Sample ID 293753-11, Cannabis Vapor In Hexane, RL 0.001): <0.001 mg/mL; Mass recovered from vapor ([1]; Trial 10, terpenes, broken pellets 232.3 mg, 210° C., 6 minutes, 1 filter pad and 2 impingers, hexane): 0.03 mg
5 | C=CC(C)(O)CC/C=C(\C)CCC=C(C)C (stereo not drawn) [Trans-nerolidol] | <0.0001 | <0.0001 | <0.0001 | 0.002 | <0.001 | –
